Consider two molecules from article PMC6138935.

Protein sequences, listed by entry. Tags and fused reporters are not part of them.
UniProt P10275: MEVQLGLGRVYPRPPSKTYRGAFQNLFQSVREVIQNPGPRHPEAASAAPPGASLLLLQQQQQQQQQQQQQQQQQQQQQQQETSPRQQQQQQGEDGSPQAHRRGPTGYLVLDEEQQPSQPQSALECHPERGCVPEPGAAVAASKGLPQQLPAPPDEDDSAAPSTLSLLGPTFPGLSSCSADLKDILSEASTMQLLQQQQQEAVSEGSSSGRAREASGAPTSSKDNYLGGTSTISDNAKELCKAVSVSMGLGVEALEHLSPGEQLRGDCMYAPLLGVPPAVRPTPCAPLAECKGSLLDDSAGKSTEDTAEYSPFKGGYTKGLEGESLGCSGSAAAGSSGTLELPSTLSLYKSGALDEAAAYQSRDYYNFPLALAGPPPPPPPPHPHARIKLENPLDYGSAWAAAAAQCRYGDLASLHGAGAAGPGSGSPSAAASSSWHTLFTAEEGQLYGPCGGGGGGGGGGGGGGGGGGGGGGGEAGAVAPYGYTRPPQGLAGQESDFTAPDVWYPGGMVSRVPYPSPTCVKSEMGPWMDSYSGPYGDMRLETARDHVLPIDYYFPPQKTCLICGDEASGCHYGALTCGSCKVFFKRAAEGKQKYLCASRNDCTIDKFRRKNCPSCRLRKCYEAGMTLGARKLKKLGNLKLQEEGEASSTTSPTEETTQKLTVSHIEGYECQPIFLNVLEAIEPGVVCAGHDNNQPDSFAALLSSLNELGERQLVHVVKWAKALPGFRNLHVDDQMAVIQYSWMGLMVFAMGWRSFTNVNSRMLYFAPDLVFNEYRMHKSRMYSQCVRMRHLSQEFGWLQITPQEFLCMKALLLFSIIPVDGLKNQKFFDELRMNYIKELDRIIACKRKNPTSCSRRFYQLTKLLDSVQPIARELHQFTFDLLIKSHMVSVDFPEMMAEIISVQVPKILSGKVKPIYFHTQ
UniProt P01106: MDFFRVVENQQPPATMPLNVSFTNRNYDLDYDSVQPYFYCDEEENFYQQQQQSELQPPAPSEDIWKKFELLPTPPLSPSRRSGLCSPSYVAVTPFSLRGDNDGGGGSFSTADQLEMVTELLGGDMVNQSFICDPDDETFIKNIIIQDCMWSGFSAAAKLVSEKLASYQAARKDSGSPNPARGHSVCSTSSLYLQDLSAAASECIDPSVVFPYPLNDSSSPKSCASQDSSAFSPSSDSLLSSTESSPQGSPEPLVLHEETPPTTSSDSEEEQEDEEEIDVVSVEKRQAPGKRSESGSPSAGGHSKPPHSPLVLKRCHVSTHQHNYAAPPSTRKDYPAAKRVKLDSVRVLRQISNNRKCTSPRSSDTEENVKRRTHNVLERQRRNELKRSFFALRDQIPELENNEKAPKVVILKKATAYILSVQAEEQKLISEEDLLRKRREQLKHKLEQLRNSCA

Results are given in words; binding and its absence hold for the method and conditions named. Binding seen in cells or lysates may run through a third protein. Some results given as binding are weak or reduced against the parent protein; the word gives no strength.

The target of test [1] is T1, Prostate-derived Ets factor, overexpressed from a lentiviral vector in SKBR-3 cells (UniProt O95238).
T1 sequence: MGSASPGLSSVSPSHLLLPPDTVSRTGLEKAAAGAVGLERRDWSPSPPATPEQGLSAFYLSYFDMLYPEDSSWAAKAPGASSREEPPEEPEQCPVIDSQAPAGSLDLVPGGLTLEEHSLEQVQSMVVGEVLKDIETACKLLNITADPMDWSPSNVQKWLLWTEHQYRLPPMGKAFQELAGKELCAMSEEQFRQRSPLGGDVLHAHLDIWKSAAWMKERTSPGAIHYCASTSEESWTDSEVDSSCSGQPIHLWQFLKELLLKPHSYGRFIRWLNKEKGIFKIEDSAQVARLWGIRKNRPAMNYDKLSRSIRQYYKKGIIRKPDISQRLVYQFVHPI
Briefly: co-IP; anti-PDEF antibody (ab53881) covalently coupled to resin (Pierce Co-IP kit), incubated with cell lysates overnight at 4 °C, western blot; PDEF-overexpressing SKBR-3 cells and control vector-infected cells. A general note: Immunoblotting shows a protein as a band on a membrane.

The target of test [2] is Androgen receptor (human (endogenous in MDA-MB-453 and SKBR-3)) (UniProt P10275). Briefly: co-IP; anti-AR antibody (ab9474) covalently coupled to resin (Pierce Co-IP kit), incubated with cell lysates overnight at 4 °C, western blot; MDA-MB-453 and SKBR-3 cells treated with 1 nM DHT for 48 h, and control cells.

In the case of MYC (from UniProt P01106 1-454), the binding entry in test [1] was “no binding”.

B1: Prostate-derived Ets factor (protein, UniProt O95238 1-335)
chain: MGSASPGLSSVSPSHLLLPPDTVSRTGLEKAAAGAVGLERRDWSPSPPATPEQGLSAFYLSYFDMLYPEDSSWAAKAPGASSREEPPEEPEQCPVIDSQAPAGSLDLVPGGLTLEEHSLEQVQSMVVGEVLKDIETACKLLNITADPMDWSPSNVQKWLLWTEHQYRLPPMGKAFQELAGKELCAMSEEQFRQRSPLGGDVLHAHLDIWKSAAWMKERTSPGAIHYCASTSEESWTDSEVDSSCSGQPIHLWQFLKELLLKPHSYGRFIRWLNKEKGIFKIEDSAQVARLWGIRKNRPAMNYDKLSRSIRQYYKKGIIRKPDISQRLVYQFVHPI
For the molecule B1, the binding result in test [2] is “binds”.
